Laboratory results as given in paper PMC6588349, “Conformational dynamics between transmembrane domains and allosteric modulation of a metabotropic glutamate receptor” (eLife, 2019).
These are yes or no findings as the source states them, for the method shown. Binding seen in cells or lysates may run through a third protein. Some results given as binding are weak or reduced against the parent protein; the word gives no strength.

Sequences of proteins named here, by UniProt entry; tags and fusion partners are left off. A change or cut given only in a name is not applied to a line headed by its entry. A line that says so, or that is headed by a name, gives the form on record, which may keep a tag or linker.
SNAP-mGluR2-TMD-N735D (P31421, form named): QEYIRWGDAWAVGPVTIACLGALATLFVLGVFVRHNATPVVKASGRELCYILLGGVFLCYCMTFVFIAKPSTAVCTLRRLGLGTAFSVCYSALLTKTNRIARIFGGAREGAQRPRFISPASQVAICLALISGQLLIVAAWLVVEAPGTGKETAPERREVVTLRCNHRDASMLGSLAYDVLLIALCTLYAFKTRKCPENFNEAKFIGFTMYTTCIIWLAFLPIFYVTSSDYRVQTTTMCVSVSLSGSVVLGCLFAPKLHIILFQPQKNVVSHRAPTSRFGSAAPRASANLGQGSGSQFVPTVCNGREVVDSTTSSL

Target: SNAP-mGluR2-TMD-N735D (rat) (UniProt P31421)
Assay: FRET or BRET; living HEK 293T cells, N-terminal SNAP (or SNAP and CLIP) tags labelled at the surface with donor and acceptor fluorophores, donor excited at 561 nm, ensemble FRET of cell clusters, acceptor bleaching/donor recovery and drug-induced FRET changes, room temperature

## SNAP-mGluR2-TMD-N735D (from UniProt P31421 558-872) (domain or fragment)
  binding: binds
